The subject of the series is Sindbis virus TE/5'2J-GFP. In words: percent infected (GFP+ in RFP+ ISG-expressing cells); higher = more infection (less antiviral activity). Particulars: experiment: primary screen (single well).

The data scatter; read single values as rough.

On to “MPSLWDRFSSSSTSSSPSSLPRTPTPDRPPRSAWGSATREEGFDRSTSLESSDCESLDSSNSGFGPEEDTAYLDGVSLPDFELLSDPEDEHLCANLMQLLQESLAQARLGSRRPARLLMPSQLVSQVGKELLRLAYSEPCGLRGALLDVCVEQGKSCHSVGQLALDPSLVPTFQLTLVLRLDSRLWPKIQGLFSSANSPFLPGFSQSLTLSTGFRVIKKKLYSSEQLLIEEC [DDIT4]”, for which the percent infected reads like this: (BHK/HA-Zeo (control)) 94.9%; (BHK/NZAP-Zeo (ZAP)) 79.9%.
The corresponding values for “MAEEEVAKLEKHLMLLRQEYVKLQKKLAETEKRCALLAAQANKESSSESFISRLLAIVADLYEQEQYSDLKIKVGDRHISAHKFVLAARSDSWSLANLSSTKELDLSDANPEVTMTMLRWIYTDELEFREDDVFLTELMKLANRFQLQLLRERCEKGVMSLVNVRNCIRFYQTAEELNASTLMNYCAEIIASHWDDLRKEDFSSMSAQLLYKMIKSKTEYPLHKAIKVEREDVVFLYLIEMDSQLPGKLNEADHNGDLALDLALSRRLESIATTLVSHKADVDMVDKSGWSLLHKGIQRGDLFAATFLIKNGAFVNAATLGAQETPLHLVALYSSKKHSADVMSEMAQIAEALLQAGANPNMQDSKGRTPLHVSIMAGNEYVFSQLLQCKQLDLELKDHEGSTALWLAVQHITVSSDQSVNPFEDVPVVNGTSFDENSFAARLIQRGSHTDAPDTATGNCLLQRAAGAGNEAAALFLATNGAHVNHRNKWGETPLHTACRHGLANLTAELLQQGANPNLQTEEALPLPKEAASLTSLADSVHLQTPLHMAIAYNHPDVVSVILEQKANALHATNNLQIIPDFSLKDSRDQTVLGLALWTGMHTIAAQLLGSGAAINDTMSDGQTLLHMAIQRQDSKSALFLLEHQADINVRTQDGETALQLAIRNQLPLVVDAICTRGADMSVPDEKGNPPLWLALANNLEDIASTLVRHGCDATCWGPGPGGCLQTLLHRAIDENNEPTACFLIRSGCDVNSPRQPGANGEGEEEARDGQTPLHLAASWGLEETVQCLLEFGANVNAQDAEGRTPIHVAISSQHGVIIQLLVSHPDIHLNVRDRQGLTPFACAMTFKNNKSAEAILKRESGAAEQVDNKGRNFLHVAVQNSDIESVLFLISVHANVNSRVQDASKLTPLHLAVQAGSEIIVRNLLLAGAKVNELTKHRQTALHLAAQQDLPTICSVLLENGVDFAAVDENGNNALHLAVMHGRLNNIRVLLTECTVDAEAFNLRGQSPLHILGQYGKENAAAIFDLFLECMPGYPLDKPDADGSTVLLLAYMKGNANLCRAIVRSGARLGVNNNQGVNIFNYQVATKQLLFRLLDMLSKEPPWCDGSYCYECTARFGVTTRKHHCRHCGRLLCHKCSTKEIPIIKFDLNKPVRVCNICFDVLTLGGVS [ANKFY1]” are 98.4% and 91.5%.
The corresponding values for “MEVTTRLTWNDENHLRKLLGNVSLSLLYKSSVHGGSIEDMVERCSRQGCTITMAYIDYNMIVAFMLGNYINLHESSTEPNDSLWFSLQKKNDTTEIETLLLNTAPKIIDEQLVCRLSKTDIFIICRDNKIYLDKMITRNLKLRFYGHRQYLECEVFRVEGIKDNLDDIKRIIKAREHRNRLLADIRDYRPYADLVSEIRILLVGPVGSGKSSFFNSVKSIFHGHVTGQAVVGSDITSITERYRIYSVKDGKNGKSLPFMLCDTMGLDGAEGAGLCMDDIPHILKGCMPDRYQFNSRKPITPEHSTFITSPSLKDRIHCVAYVLDINSIDNLYSKMLAKVKQVHKEVLNCGIAYVALLTKVDDCSEVLQDNFLNMSRSMTSQSRVMNVHKMLGIPISNILMVGNYASDLELDPMKDILILSALRQMLRAADDFLEDLPLEETGAIERALQPCI [IFI44L]” are 97.9% and 82%.
The corresponding values for “MPPAVGGPVGYTPPDGGWGWAVVIGAFISIGFSYAFPKSITVFFKEIEGIFHATTSEVSWISSIMLAVMYGGGPISSILVNKYGSRIVMIVGGCLSGCGLIAASFCNTVQQLYVCIGVIGGLGLAFNLNPALTMIGKYFYKRRPLANGLAMAGSPVFLCTLAPLNQVFFGIFGWRGSFLILGGLLLNCCVAGALMRPIGPKPTKAGKDKSKASLEKAGKSGVKKDLHDANTDLIGRHPKQEKRSVFQTINQFLDLTLFTHRGFLLYLSGNVIMFFGLFAPLVFLSSYGKSQHYSSEKSAFLLSILAFVDMVARPSMGLVANTKPIRPRIQYFFAASVVANGVCHMLAPLSTTYVGFCVYAGFFGFAFGWLSSVLFETLMDLVGPQRFSSAVGLVTIVECCPVLLGPPLLGRLNDMYGDYKYTYWACGVVLIISGIYLFIGMGINYRLLAKEQKANEQKKESKEEETSIDVAGKPNEVTKAAESPDQKDTDGGPKEEESPV [SLC16A1]” are 98.8% and 98.4%.
On to “MATAPSYPAGLPGSPGPGSPPPPGGLELQSPPPLLPQIPAPGSGVSFHIQIGLTREFVLLPAASELAHVKQLACSIVDQKFPECGFYGLYDKILLFKHDPTSANLLQLVRSSGDIQEGDLVEVVLSASATFEDFQIRPHALTVHSYRAPAFCDHCGEMLFGLVRQGLKCDGCGLNYHKRCAFSIPNNCSGARKRRLSSTSLASGHSVRLGTSESLPCTAEELSRSTTELLPRRPPSSSSSSSASSYTGRPIELDKMLLSKVKVPHTFLIHSYTRPTVCQACKKLLKGLFRQGLQCKDCKFNCHKRCATRVPNDCLGEALINGDVPMEEATDFSEADKSALMDESEDSGVIPGSHSENALHASEEEEGEGGKAQSSLGYIPLMRVVQSVRHTTRKSSTTLREGWVVHYSNKDTLRKRHYWRLDCKCITLFQNNTTNRYYKEIPLSEILTVESAQNFSLVPPGTNPHCFEIVTANATYFVGEMPGGTPGGPSGQGAEAARGWETAIRQALMPVILQDAPSAPGHAPHRQASLSISVSNSQIQENVDIATVYQIFPDEVLGSGQFGVVYGGKHRKTGRDVAVKVIDKLRFPTKQESQLRNEVAILQSLRHPGIVNLECMFETPEKVFVVMEKLHGDMLEMILSSEKGRLPERLTKFLITQILVALRHLHFKNIVHCDLKPENVLLASADPFPQVKLCDFGFARIIGEKSFRRSVVGTPAYLAPEVLLNQGYNRSLDMWSVGVIMYVSLSGTFPFNEDEDINDQIQNAAFMYPASPWSHISAGAIDLINNLLQVKMRKRYSVDKSLSHPWLQEYQTWLDLRELEGKMGERYITHESDDARWEQFAAEHPLPGSGLPTDRDLGGACPPQDHDMQGLAERISVL [PRKD2]”, for which the percent infected reads like this: (BHK/HA-Zeo (control)) 98.7%; (BHK/NZAP-Zeo (ZAP)) 98.3%.
For “MLRAGAPTGDLPRAGEVHTGTTIMAVEFDGGVVMGSDSRVSAGEAVVNRVFDKLSPLHERIYCALSGSAADAQAVADMAAYQLELHGIELEEPPLVLAAANVVRNISYKYREDLSAHLMVAGWDQREGGQVYGTLGGMLTRQPFAIGGSGSTFIYGYVDAAYKPGMSPEECRRFTTDAIALAMSRDGSSGGVIYLVTITAAGVDHRVILGNELPKFYDE [PSMB9]”, the percent infected is 83.6% (BHK/HA-Zeo (control)) and 38.3% (BHK/NZAP-Zeo (ZAP)).
In the case of PNRC1, the percent infected (BHK/HA-Zeo (control)) came to 97.2% and the percent infected (BHK/NZAP-Zeo (ZAP)) was determined as 91.9%.
The corresponding values for “MPQTPPFSAMFDSSGYNRNLYQSAEDSCGGLYYHDNNLLSGSLEALIQHLVPNVDYYPDRTYIFTFLLSSRLFMHPYELMAKVCHLCVEHQRLSDPDSDKNQMRKIAPKILQLLTEWTETFPYDFRDERMMRNLKDLAHRIASGEEQTYRKNVQQMMQCLIRKLAALSQYEEVLAKISSTSTDRLTVLKTKPQSIQRDIITVCNDPYTLAQQLTHIELERLNYIGPEEFVQAFVQKDPLDNDKSCYSERKKTRNLEAYVEWFNRLSYLVATEICMPVKKKHRARMIEYFIDVARECFNIGNFNSLMAIISGMNMSPVSRLKKTWAKVKTAKFDILEHQMDPSSNFYNYRTALRGAAQRSLTAHSSREKIVIPFFSLLIKDIYFLNEGCANRLPNGHVNFEKFWELAKQVSEFMTWKQVECPFERDRKILQYLLTVPVFSEDALYLASYESEGPENHIEKDRWKSLRSSLLGRV [RASGEF1B]” are 97.2% and 93.7%.
The corresponding values for “MAPEIHMTGPMCLIENTNGELVANPEALKILSAITQPVVVVAIVGLYRTGKSYLMNKLAGKNKGFSLGSTVKSHTKGIWMWCVPHPKKPEHTLVLLDTEGLGDVKKGDNQNDSWIFTLAVLLSSTLVYNSMGTINQQAMDQLYYVTELTHRIRSKSSPDENENEDSADFVSFFPDFVWTLRDFSLDLEADGQPLTPDEYLEYSLKLTQGTSQKDKNFNLPRLCIRKFFPKKKCFVFDLPIHRRKLAQLEKLQDEELDPEFVQQVADFCSYIFSNSKTKTLSGGIKVNGPRLESLVLTYINAISRGDLPCMENAVLALAQIENSAAVQKAIAHYDQQMGQKVQLPAETLQELLDLHRVSEREATEVYMKNSFKDVDHLFQKKLAAQLDKKRDDFCKQNQEASSDRCSALLQVIFSPLEEEVKAGIYSKPGGYCLFIQKLQDLEKKYYEEPRKGIQAEEILQTYLKSKESVTDAILQTDQILTEKEKEIEVECVKAESAQASAKMVEEMQIKYQQMMEEKEKSYQEHVKQLTEKMERERAQLLEEQEKTLTSKLQEQARVLKERCQGESTQLQNEIQKLQKTLKKKTKRYMSHKLKI [GBP3]” are 98.9% and 95.6%.
For “MEGDFSVCRNCKRHVVSANFTLHEAYCLRFLVLCPECEEPVPKETMEEHCKLEHQQVGCTMCQQSMQKSSLEFHKANECQERPVECKFCKLDMQLSKLELHESYCGSRTELCQGCGQFIMHRMLAQHRDVCRSEQAQLGKGERISAPEREIYCHYCNQMIPENKYFHHMGKCCPDSEFKKHFPVGNPEILPSSLPSQAAENQTSTMEKDVRPKTRSINRFPLHSESSSKKAPRSKNKTLDPLLMSEPKPRTSSPRGDKAAYDILRRCSQCGILLPLPILNQHQEKCRWLASSKGKQVRNFS [XAF1]” the same measures were 97.8% and 91.8%.
For the substance “MGTSLSPNDPWPLNPLSIQQTTLLLLLSVLATVHVGQRLLRQRRRQLRSAPPGPFAWPLIGNAAAVGQAAHLSFARLARRYGDVFQIRLGSCPIVVLNGERAIHQALVQQGSAFADRPAFASFRVVSGGRSMAFGHYSEHWKVQRRAAHSMMRNFFTRQPRSRQVLEGHVLSEARELVALLVRGSADGAFLDPRPLTVVAVANVMSAVCFGCRYSHDDPEFRELLSHNEEFGRTVGAGSLVDVMPWLQYFPNPVRTVFREFEQLNRNFSNFILDKFLRHCESLRPGAAPRDMMDAFILSAEKKAAGDSHGGGARLDLENVPATITDIFGASQDTLSTALQWLLLLFTRYPDVQTRVQAELDQVVGRDRLPCMGDQPNLPYVLAFLYEAMRFSSFVPVTIPHATTANTSVLGYHIPKDTVVFVNQWSVNHDPLKWPNPENFDPARFLDKDGLINKDLTSRVMIFSVGKRRCIGEELSKMQLFLFISILAHQCDFRANPNEPAKMNFSYGLTIKPKSFKVNVTLRESMELLDSAVQNLQAKETCQ [CYP1B1]”, the percent infected stood at 92.3% (BHK/HA-Zeo (control)) and 90.2% (BHK/NZAP-Zeo (ZAP)).
The corresponding values for “MSDVTIVKEGWVQKRGEYIKNWRPRYFLLKTDGSFIGYKEKPQDVDLPYPLNNFSVAKCQLMKTERPKPNTFIIRCLQWTTVIERTFHVDTPEEREEWTEAIQAVADRLQRQEEERMNCSPTSQIDNIGEEEMDASTTHHKRKTMNDFDYLKLLGKGTFGKVILVREKASGKYYAMKILKKEVIIAKDEVAHTLTESRVLKNTRHPFLTSLKYSFQTKDRLCFVMEYVNGGELFFHLSRERVFSEDRTRFYGAEIVSALDYLHSGKIVYRDLKLENLMLDKDGHIKITDFGLCKEGITDAATMKTFCGTPEYLAPEVLEDNDYGRAVDWWGLGVVMYEMMCGRLPFYNQDHEKLFELILMEDIKFPRTLSSDAKSLLSGLLIKDPNKRLGGGPDDAKEIMRHSFFSGVNWQDVYDKKLVPPFKPQVTSETDTRYFDEEFTAQTITITPPEKYDEDGMDCMDNERRPHFPQFSYSASGRE [AKT3]” are 98.9% and 98%.

The values above are taken from the supplement of paper PMC3353916.
